Measured values as given in PMC2709443.
No constants are given. Whether binding was seen depends on the method and setting. Binding seen in cells or lysates may run through a third protein. Some entries that bind do so weakly or less than the wild type. Tags and fused reporters may be left off the sequences shown.

Columns and labels:
[1] = target: T1, MAC3A-CFP (P35S-MAC3A-CFP) (Arabidopsis thaliana) (UniProt Q94BR4); experiment: co-IP; MAC3A-CFP precipitated with anti-GFP microbeads from total nuclear extract of P35S-MAC3A-CFP mac3a mac3b plants; western blot with anti-GFP and anti-AtCDC5; Col-0 as control
T1 sequence: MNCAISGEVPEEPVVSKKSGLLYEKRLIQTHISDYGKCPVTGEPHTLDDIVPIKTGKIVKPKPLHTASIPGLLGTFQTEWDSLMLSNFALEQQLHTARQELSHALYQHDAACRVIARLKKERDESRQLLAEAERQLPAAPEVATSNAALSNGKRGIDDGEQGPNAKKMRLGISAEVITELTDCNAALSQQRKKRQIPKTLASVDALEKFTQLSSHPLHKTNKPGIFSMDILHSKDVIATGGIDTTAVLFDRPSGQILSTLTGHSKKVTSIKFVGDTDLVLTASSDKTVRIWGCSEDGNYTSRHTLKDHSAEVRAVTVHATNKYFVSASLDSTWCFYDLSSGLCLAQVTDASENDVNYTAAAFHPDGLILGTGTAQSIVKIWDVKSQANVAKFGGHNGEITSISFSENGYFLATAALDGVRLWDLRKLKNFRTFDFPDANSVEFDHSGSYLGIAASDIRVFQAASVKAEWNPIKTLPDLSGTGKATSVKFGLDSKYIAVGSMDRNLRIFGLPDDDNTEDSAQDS

[2] = target: T2, MAC3A-HA (P35S-MAC3A-HA) (Arabidopsis thaliana) (UniProt Q94BR4); experiment: co-IP; MAC3A-HA precipitated with anti-HA microbeads from nuclear extract (NE-2 with 100 mM NaCl, 0.2% Triton X-100) of about 15 g leaf tissue of P35S-MAC3A-HA mac3a mac3b plants; washes with 150 mM NaCl; western blot with anti-HA and anti-AtCDC5; Col-0 as control
T2 sequence: T1 sequence

binding [1]: binds
binding [2]: binds
B1: AtCDC5/MAC1; R2-R3 Myb transcription factor (protein, UniProt P92948 1-844)
chain: MRIMIKGGVWKNTEDEILKAAVMKYGKNQWARISSLLVRKSAKQCKARWYEWLDPSIKKTEWTREEDEKLLHLAKLLPTQWRTIAPIVGRTPSQCLERYEKLLDAACTKDENYDAADDPRKLRPGEIDPNPEAKPARPDPVDMDEDEKEMLSEARARLANTRGKKAKRKAREKQLEEARRLASLQKRRELKAAGIDGRHRKRKRKGIDYNAEIPFEKRAPAGFYDTADEDRPADQVKFPTTIEELEGKRRADVEAHLRKQDVARNKIAQRQDAPAAILQANKLNDPEVVRKRSKLMLPPPQISDHELEEIAKMGYASDLLAENEELTEGSAATRALLANYSQTPRQGMTPMRTPQRTPAGKGDAIMMEAENLARLRDSQTPLLGGENPELHPSDFTGVTPRKKEIQTPNPMLTPSMTPGGAGLTPRIGLTPSRDGSSFSMTPKGTPFRDELHINEDMDMHESAKLERQRREEARRSLRSGLTGLPQPKNEYQIVAQPPPEESEEPEEKIEEDMSDRIAREKAEEEARQQALLKKRSKVLQRDLPRPPAASLAVIRNSLLSADGDKSSVVPPTPIEVADKMVREELLQLLEHDNAKYPLDDKAEKKKGAKNRTNRSASQVLAIDDFDENELQEADKMIKEEGKFLCVSMGHENKTLDDFVEAHNTCVNDLMYFPTRSAYELSSVAGNADKVAAFQEEMENVRKKMEEDEKKAEHMKAKYKTYTKGHERRAETVWTQIEATLKQAEIGGTEVECFKALKRQEEMAASFRKKNLQEEVIKQKETESKLQTRYGNMLAMVEKAEEIMVGFRAQALKKQEDVEDSHKLKEAKLATGEEEDIAIAMEASA
